Experimental data taken from PubChem BioAssay AID212 (DTP/NCI, 2004).
The list does not hold the whole screen: it is rich in T/C values a quarter to a half above the control, in often repeated tests (any T/C) and in doses without a T/C. Other doses and runs of a compound stand elsewhere. T/C gives the treated animals as a percentage of the vehicle group. Schedule codes are those of the source, read here as Q, the interval in days (D) or hours (H), X, the number of doses. Some entries give survivors of the animals treated and no T/C: the source holds a T/C of zero for them, seemingly a mark for toxic or unscored doses. Survivors were counted at the toxicity check, usually on the fifth day, unless a day is given; later deaths do not show. Some entries were tested several times; their values stand side by side, smallest first.

Test system: BDF1 mice, colon carcinoma 38 sc, T/C %
Experiment: NCI In Vivo Anticancer Drug Screen. Data for tumor model Colon Carcinoma 38 (subcutaneous) in B6D2F1 (BDF1) mice
Details: T/C endpoint: median tumor weight (est.), higher T/C = larger tumour; for T/C: evaluated on day 20
How it was run: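 Transplantable tumor in mice; compound-treated vs vehicle-dosed controls. Measured survival or tumor size; value = T ÷ C.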

Cc1c2cc[n+](C)cc2c(C)c2c1[nH]c1ccc(O)cc12
T/C (dose: 0.25 mg/kg/injection, schedule: Q07DX002 (ip), vehicle: water): 143 % of control
T/C (dose: 0.5 mg/kg/injection, schedule: Q07DX002 (ip), vehicle: water): 137 % of control
T/C (dose: 0.75 mg/kg/injection, schedule: Q07DX002 (ip), vehicle: water): 130 % of control
T/C (dose: 1.0 mg/kg/injection, schedule: Q07DX002 (ip), vehicle: water): 129 % of control
survivor count (dose: 4.0 mg/kg/injection, schedule: Q07DX002 (ip), vehicle: water): 2 of 10 on day 20
survivor count (dose: 6.0 mg/kg/injection, schedule: Q07DX002 (ip), vehicle: water): 2 of 10 on day 20
survivor count (dose: 8.0 mg/kg/injection, schedule: Q07DX002 (ip), vehicle: water): 0 of 10 on day 20 and 5 of 10 on day 20
survivor count (dose: 10.0 mg/kg/injection, schedule: Q07DX002 (ip), vehicle: water): 0 of 10 on day 20
survivor count (dose: 12.0 mg/kg/injection, schedule: Q07DX002 (ip), vehicle: water): 0 of 10 on day 20

Cc1ccccc1CN1C2=NCCN2C(=O)C2=C1CCN(S(=O)(=O)c1ccc(Cl)c(S(N)(=O)=O)c1)C2
T/C (dose: 800.0 mg/kg/injection, schedule: Q07DX002 (ip), vehicle: saline): 143 % of control
survivor count (dose: 3600.0 mg/kg/injection, schedule: Q07DX002 (ip), vehicle: saline): 6 of 10 on day 20

CC[PH+](CC)CC[S-].CC[PH+](CC)CC[S-].[Au+].[Au+]
survivor count (dose: 80.0 mg/kg/injection, schedule: Q07DX002 (ip), vehicle: Klucel (hydroxypropylcellulose) (HPC)): 5 of 10 on day 20
survivor count (dose: 160.0 mg/kg/injection, schedule: Q07DX002 (ip), vehicle: Klucel (hydroxypropylcellulose) (HPC)): 0 of 10 on day 20

C/C(=C\c1ccccc1)[N+](=O)[O-]
T/C (dose: 12.5 mg/kg/injection, schedule: Q07DX003 (ip), vehicle: Klucel (hydroxypropylcellulose) (HPC)): 141 % of control

O=C(O)C1CC(c2ccccc2)=NN1c1ccccc1 (stereo not drawn)
T/C (dose: 100.0 mg/kg/injection, schedule: Q07DX002 (ip), vehicle: water): 141 % of control
survivor count (dose: 400.0 mg/kg/injection, schedule: Q07DX002 (ip), vehicle: water): 2 of 10 on day 20 and 4 of 10 on day 20
survivor count (dose: 800.0 mg/kg/injection, schedule: Q07DX002 (ip), vehicle: water): 0 of 10 on day 20

COc1ccc(CC2C(=O)NC(C)C(=O)N(C)C3C(=O)N(C)C(Cc4ccc(O)c(c4)Oc4ccc(cc4)C3O)C(=O)NC(C)C(=O)NC(C)C(=O)N2C)cc1 (stereo not drawn)
T/C (dose: 2.0 mg/kg/injection, schedule: Q07DX003 (ip), vehicle: Klucel (hydroxypropylcellulose) (HPC)): 130 % of control
